Measurements from patent US8258100B2, “Ligand/lytic peptide methods of use” (Board of Supervisors of Louisiana State University and …, priority 1997, dated 2012).
At least one peptide structure holds a part that was inferred or is arguable (an end, a ring closure or a residue). Some entries share one result that the patent states for a list of compounds. Where a SMILES comes first, the peptide text is derived from it. Where no end group is shown, it is not given here.

Legend:
[1] = system: Diatraea saccharalis; assay: fertility of sugar cane borer after inoculation of late-stage pupae; format: in vivo; details: for average eggs per female / eggs hatched / hatched larvae per female / total eggs laid: 1.0 μL of 1.35 mM peptide; for total eggs laid: 2, 5 and 4 females (GnRH, GnRH-hecate, D-hecate); for reproductive success compared to controls: females treated in the late pupal stage
Method: Late-stage Diatraea saccharalis (sugar cane borer) pupae were inoculated with 1.0 μL of saline solution containing 1.35 mM concentration of peptide as stated, or saline alone as control. The pupae were allowed to complete metamorphosis. […] Adult female moths were allowed to mate with treated males, and then lay eggs. The viability of the eggs was measured by counting the number hatching into larvae.

[2] = system: female New Zealand rabbits; assay: mature female New Zealand rabbits, intravenous GnRH-hecate, GnRH challenge day 46, necropsy day 47; format: in vivo, rabbit
Method: Seven sexually mature female New Zealand rabbits were injected intravenously with saline containing GnRH-hecate as follows:
Forty-six days later all rabbits were injected intramuscularly with 100 μg GnRH. Blood samples were collected at 0, 1, 4, and 24 hours, and LH and FSH levels in the blood samples were measured by radioimmunoassay. […] The rabbits were sacrificed the next day (day 47) for postmortem histological analysis. […] Ovarian and pituitary weights were reduced by the 10 mg GnRH-hecate treatment.

[3] = system: DU145 cells; assay: in vitro lysis of human prostate cancer cells, Trypan blue exclusion; format: cell-based; details: 22 hours; GnRH-hecate 10 μM
From the text: LNCaP FGC and DU145 human prostate cancer cell lines were purchased from the American Type Culture Collection (ATCC, Rockville Md.), ATCC accession numbers CRL 1740 and HTB-81, respectively. The LNCaP FGC adenocarcinoma cell line was originally obtained from a person. LNCaP FGC cells are sensitive to dihydrotestosterone and to estrogens (A+). The DU145 carcinoma was originally isolated from the brain of a person with metastatic carcinoma of the prostate; this cell line is not sensitive to steroid hormones (A−).
Cells were detached from culture flasks, and 1000 cells/well were transferred to 24 well culture plates. The cells were incubated for 24 hours with 10% calf serum. Cells were subsequently incubated without serum for 48 hours. Cells were then incubated for 22 hours with one of the following treatments:
Trypan blue exclusion was used to assess viability of the cells after treatment. […] However, treatment with a lytic peptide alone may not be selective in vivo unless specific cell types are separately stimulated, for example by hormones controlling their activity.

[4] = system: sexually immature female rats; assay: sexually immature female rats, two intravenous injections, examination after breeding age; format: in vivo, rat
[5] = system: sexually immature female rats; assay: immature female rats, intravenous GnRH-hecate or GnRH then hecate, histology and immunocytochemistry at 14 days; format: in vivo, rat
Method: Another set of experiments was performed to study the in vivo effects of the GnRH-hecate conjugate on female rats and rabbits. The ovaries, uterus, oviducts, adrenals, spleen, thyroids, pancreas, liver, lungs, and heart were processed for histological analysis. […] The immunocytochemical staining procedures we used followed generally the procedures of M. Rahmanian et al., “Histological and immunocytochemical characterization of pituitary cell types in ponies,” Proc. 13th Soc. Equine Nutrition & Phys. Symp., pp. 348-349 (1993); M. Rahmanian et al., “Immunocytochemical localization of luteinizing hormone and follicle-stimulating hormone in the equine pituitary,” J. Anim. Sci., vol. 76, pp. 839-846 (1998); M. Rahmanian et al., “Immunocytochemical localization of prolactin and growth hormone in the equine pituitary,” Animal Sci., vol. 75, pp. 3010-3018 (1997); and P. Melrose et al., “Comparative topography of the immunoreactive alpha-melanocyte-stimulating hormone neuronal system in the brains of horses and rats,” Brain Beh. & Evol., vol. 32, pp. 226-235 (1988).
Brains were serially sectioned on a Vibrotome from the level of the diagonal band of Broca to the mammillary body. Alternate sections were consecutively divided into four to five dishes, and sections in alternate dishes were stained with cresyl violet, or were stained immunocytochemically for GnRH or the GnRH precursor, VP, OXY, or tyrosine hydroxylase (the rate-limiting enzyme in catecholamine synthesis). In addition to the staining procedures cited above, we also used the immunocytochemical staining procedures of P. Melrose et al., “Distribution and morphology of immunoreactive gonadotropin-releasing hormone (GnRH) neurons in the basal forebrain of ponies,” J. Comp. Neurol. vol. 339, pp. 269-287 (1994); and P. Melrose et al., “Topography of oxytocin and vasopressin neurons in the forebrain of Equus caballus: Further support of proposed evolutionary relationships for proopiomelanocortin, oxytocin and vasopressin neurons,” Brain, Beh. & Evol., vol. 33, pp. 193-204 (1989). […]

[6] = system: female rabbits; assay: mature female rabbits, intravenous GnRH-hecate, GnRH challenge day 6, sacrifice day 7; format: in vivo, rabbit
Method: Nine sexually mature female rabbits were injected intravenously with saline containing 0 mg (n=4) (Treatment 46) or 10 mg GnRH-hecate (n=5) (Treatment 47). Rabbits were injected intramuscularly with GnRH on day 6 posttreatment. Blood samples were collected for radioimmunoassay of LH and FSH as described above, and the animals were sacrificed on day 7 post-treatment. […] The effects of GnRH-hecate on CNS morphology and immunocytochemical results were similar to those described above in Examples 34-45. Again, the effects were more pronounced on GnRH neurons than on staining of pituitary gonadotropes.

[7] = system: sexually immature female rats; assay: immature female rats, intravenous GnRH-hecate dose series; format: in vivo, rat; details: for abnormal GnRH-receptor-containing neurons: fourteen days after treatment
Method: Sexually immature (33 day old) female rats (randomly allocated into groups of three) were injected intravenously with saline or GnRH-hecate in saline as follows:
Animals were sacrificed at 24 hours or at 14 days after treatment. […] In the rats sacrificed fourteen days after treatment, 66% and 87% of the GnRH-receptor-containing neurons were abnormal in the rats that had received 1.0 and 1.5 mg of GnRH-hecate, respectively. Axonal degeneration in the 1.5 mg GnRH-hecate group was accompanied by over 90% reduction in median eminence staining for GnRH.

[8] = system: Sprague-Dawley female rats; assay: Sprague-Dawley female rats, single intravenous treatment, necropsy at 48 or 96 hours, PAS stain of pituitary; format: in vivo, rat; details: for pituitary glands, gross appearance: GnRH-hecate 1 mg IV; for PAS-positive cells in pituitary glands: single IV, 48 or 96 hours, D-hecate 674 μg, GnRH 334 μg, GnRH-hecate 1 mg
Method: Eight sexually mature, Sprague-Dawley female rats were randomly assigned to one of eight treatments. Each group of rats received a single treatment intravenously, as described below. Rats were sacrificed and necropsied either 48 or 96 hours after treatment. The ovaries, uterus, pancreas, liver, spleen, lungs, heart, thyroid, and adrenal glands were fixed in 10% buffered formalin; sectioned; and stained with H&E (hematoxylin and eosin) stain; except that the pituitary glands were stained with PAS (periodic acid-Schiff) stain with no counter-stain. The treatments were selected so that each animal received an equimolar amount of the compound with which it was treated.

[9] = system: sexually mature female rats; assay: sexually mature female rats, double intravenous treatment, necropsy two weeks later; format: in vivo, rat
From the text: Eighteen sexually mature, mixed breed, female rats were randomly assigned to one of six groups containing three rats each. Each group of rats received a double treatment intravenously, as described below. Two weeks after the treatment, the rats were sacrificed and necropsied. The reproductive and endocrine organs were sectioned, weighed, and examined histologically.

[10] = system: pituitary basophilic (gonadotropic) cells; assay: rat pituitary gland sections in tissue culture, histology after treatment; format: cell-based
Method: The pituitary gland of an adult female rat was harvested and divided into six sections of approximately equal size. One section was placed in each of six wells containing tissue culture medium at 37° C. A different treatment was applied to each well, as described below. Ten hours after treatment, the tissue from each well was fixed, and the histology of each was examined microscopically.

[11] = system: fibroblasts; assay: LD50 on normal human cells; format: cell-based; details: non-cancerous human cells
[12] = system: enteric cells; assay: LD50 on normal human cells; format: cell-based; details: non-cancerous human cells
[13] = system: keratinocytes; assay: LD50 on normal human cells; format: cell-based; details: non-cancerous human cells
[14] = system: endothelial cells; assay: LD50 on normal human cells; format: cell-based; details: non-cancerous human cells

In the case of “QHWSYGLRPGFALALKALKKALKKLKKALKKAL [GnRH-hecate]”, the “average eggs per female” value [1] is reported as “about 40”, the eggs hatched [1] is reported as “about 40%” and the “hatched larvae per female” value [1] is reported as “about 16”. For the same compound, the total eggs laid [1] was “about 200”, the “reproductive success compared to controls” value [1] was “decreased reproductive success” and the “ovarian and pituitary weights” value ([2]; 10 mg IV, day 47) was “reduced”. For the same compound, the “LH release in response to 100 μg GnRH intramuscularly” value ([2]; 5 or 10 mg IV, day 46) was “released LH in response to the GnRH”, the “GnRH staining of terminal fields” value ([2]; 5 or 10 mg IV, day 47) was “not stained for GnRH” and the “numbers of tertiary follicles, corpora lutea, and GnRH-induced ovulations” value ([2]; 5 or 10 mg IV, day 47) was “reduced”. For the same compound, the “reduction in number of normal individual GnRH cell bodies in CNS” value ([2]; 5 or 10 mg IV, day 47) was “at least 50%”, the “killing of cells (viability)” value [3] was “equally effective” and the ovaries at necropsy ([4]; 2 x 500 μg IV at age 33 days) was “contained no large follicles, and had a high number of atretic follicles”. The “uterine and oviductal epithelia at necropsy” value ([4]; 2 x 500 μg IV at age 33 days) was “thinned, inactive uterine and oviductal epithelia”, the estrous cycling ([4]; 2 x 500 μg IV, monitoring 107 to 121 days post-inoculation) was “neither of the treated rats demonstrated estrous or metestrous” and the external genitalia ([4]; two IV injections of 500 μg 24 hours apart at age 33 days, 105 days post-inoculation) was “appeared small”. For the same compound, the “reduction of pituitary weights compared to GnRH control groups” value ([5]; 33-day-old female rats, IV, 14 days, GnRH-hecate 0.5 mg, GnRH 0.03 μg followed 11 minutes later by 0.337 μg hecate) was 13%, the “cell bodies of GnRH-stained neurons in hypophysiotropic areas of the brain” value ([5]; as E29) was “frequently deformed” and the “reduction of numbers of bLH-specific gonadotropes compared to GnRH control groups” value ([5]; as E29) was 92%. The “amount of LH released in response to GnRH” value ([6]; 10 mg IV (n=5), GnRH day 6) was “lower in the treated animals than in the controls”, the “numbers of tertiary ovarian follicles and of GnRH-induced ovulations” value ([6]; 10 mg IV, day 7) was “reduced” and the “mean number of ovulation sites” value ([6]; 10 mg IV, five rabbits, saline controls 12.2±5.4) was 3.6±1.1. The “LH surge (LH at one hour post-GnRH challenge minus resting level)” value ([6]; 10 mg IV, controls 61.2±16.5) was 49.6 ± 26.1 ng/mL, the “abnormal GnRH-receptor-containing neurons” value ([7]; 1.0 mg IV) was 66% and the “reduction in median eminence staining for GnRH” value ([7]; 1.5 mg IV) was “over 90%”. The “abnormal GnRH-receptor-containing neurons” value ([7]; 1.5 mg IV) was 87%, the “pituitary glands, gross appearance” value ([8]; 48 hours) was “slightly enlarged, hyperemic, and edematous” and the “pituitary glands, gross appearance” value ([8]; 96 hours) was “slightly hyperemic, but of expected size”. For the same compound, the “PAS-positive cells in pituitary glands” value [8] was “marked depletion of PAS-positive cells”, the “ovarian function / histology” value ([9]; IV twice 24 hours apart, two weeks after, GnRH/hecate 2 x 0.5 mg, GnRH 162 μg then 15 minutes later hecate 337 μg, hecate 337 μg, GnRH 162 μg) was “arrest of normal ovarian follicular development” and the uterine morphology ([9]; as E7) was “consistent with hormonal inactivity”. For the same compound, the “pituitaries (size) and pituitary histology” value ([9]; as E7, Treatment 9 = saline control, Treatment 10 = GnRH/hecate) was “slightly smaller than the pituitaries from the saline control group”, the “histology of pituitary tissue after treatment” value ([10]; initial application of fusion peptide, second application two hours later) was “virtually destroyed, with only stromal cells remaining” and the “histology of pituitary tissue after treatment” value ([10]; ten hours after treatment, 37° C., GnRH 5 ng/mL, hecate 50 μM, GnRH 5 ng/mL 15 minutes, wash, then hecate 50 μM, modified GnRH/hecate 50 μM) was “Widespread basophilic (gonadotropic) cellular destruction”.
In the case of `CC(C)C[C@@H](NC(=O)[C@@H](C)NC(=O)[C@@H](CCCCN)NC(=O)[C@@H](CCCCN)NC(=O)[C@@H](CC(C)C)NC(=O)[C@@H](C)NC(=O)[C@@H](CCCCN)NC(=O)[C@@H](CCCCN)NC(=O)[C@@H](CC(C)C)NC(=O)[C@@H](CCCCN)NC(=O)[C@@H](CCCCN)NC(=O)[C@@H](CC(C)C)NC(=O)[C@@H](C)NC(=O)[C@@H](CCCCN)NC(=O)[C@@H](CCCCN)NC(=O)[C@@H](CC(C)C)NC(=O)[C@@H](C)NC(=O)[C@@H](CCCCN)NC(=O)[C@@H](CC(C)C)NC(=O)[C@@H](C)NC(=O)[C@@H](CC(C)C)NC(=O)[C@@H](C)NC(=O)[C@H](N)Cc1ccccc1)C(=O)O` [D-hecate, reference compound] (HELM PEPTIDE1{[dF].[dA].[dL].[dA].[dL].[dK].[dA].[dL].[dK].[dK].[dA].[dL].[dK].[dK].[dL].[dK].[dK].[dA].[dL].[dK].[dK].[dA].[dL]}$$$$V2.0), the “average eggs per female” value [1] is reported as 4.5, the eggs hatched [1] is reported as 100% and the “hatched larvae per female” value [1] is reported as 4.5. For the same compound, the total eggs laid [1] was 18, the “reproductive success compared to controls” value [1] was “even lower reproductive success” and the “PAS-positive cells in pituitary glands” value [8] was “normal number of PAS-positive cells”.
“KRKRAVKRVGRRLKKLARKIARLGVAKLAGLRAVLKF [D5C1]” was tested, and the LD50 [11] was “greater than 100 μM”, the LD50 [12] was “greater than 100 μM” and the LD50 [13] was “greater than 100 μM”. For the same compound, the LD50 [14] was “greater than 100 μM”.
In the case of KRKRAVKRVGRRLKKLARKIARLGVAF [D5C], the LD50 [11] is reported as “greater than 100 μM”, the LD50 [12] is reported as “greater than 100 μM” and the LD50 [13] is reported as “greater than 100 μM”. For the same compound, the LD50 [14] was “greater than 100 μM”.
With FAKKFAKKFKKFAKKFAKFAFAF [D2A21] the LD50 [11] was “greater than 100 μM”, the LD50 [12] was “greater than 100 μM” and the LD50 [13] was “greater than 100 μM”. For the same compound, the LD50 [14] was “greater than 100 μM”.
